A: 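Enzyme assay of the cytosolic lysyl-tRNA synthetase in 384-well plates, read by luminescence. Target: Lysine-tRNA ligase, Plasmodium falciparum 3D7 (UniProt Q8IDJ8). Compounds at 30 µM. Higher reads as stronger inhibition, judged from the few compounds that gave an IC50. About 69,000 compounds were tested under these conditions; 0.071% (about 49) showed 50% or more at least once.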
B: 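Protease assay of ClpP1P2, read by the AMC dye that it sets free. Target: ClpP1P2, Mycobacterium tuberculosis (UniProt P9WPC5 and UniProt P9WPC3). Tested at 50 µM. Direction is inferred from only a few compounds that gave an IC50; most scored high, so higher reads as stronger inhibition. Most other retested compounds had strongly negative values. Of about 69,000 compounds tested this way, about 10 (0.015%) reached 50% or more in at least one test.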

Sequences of proteins named here, by UniProt entry; tags and fusion partners are left off. Residues count along the entry.
UniProt Q8IDJ8, 1-583: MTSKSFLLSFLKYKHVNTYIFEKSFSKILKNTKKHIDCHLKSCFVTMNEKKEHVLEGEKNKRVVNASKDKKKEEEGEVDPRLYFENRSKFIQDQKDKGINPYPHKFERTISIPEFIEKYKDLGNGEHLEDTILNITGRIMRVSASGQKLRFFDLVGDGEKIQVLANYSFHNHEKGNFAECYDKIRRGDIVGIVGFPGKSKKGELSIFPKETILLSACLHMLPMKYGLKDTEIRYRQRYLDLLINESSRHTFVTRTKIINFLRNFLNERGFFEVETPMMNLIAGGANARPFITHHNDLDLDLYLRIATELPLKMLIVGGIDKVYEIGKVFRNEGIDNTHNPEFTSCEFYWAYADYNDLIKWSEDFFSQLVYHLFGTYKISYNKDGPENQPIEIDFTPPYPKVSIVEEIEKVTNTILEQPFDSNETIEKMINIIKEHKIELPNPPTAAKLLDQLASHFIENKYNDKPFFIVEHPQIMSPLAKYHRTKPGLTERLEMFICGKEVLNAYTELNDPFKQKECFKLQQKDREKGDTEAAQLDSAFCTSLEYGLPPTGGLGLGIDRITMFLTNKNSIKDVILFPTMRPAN
UniProt P9WPC5, whole entry: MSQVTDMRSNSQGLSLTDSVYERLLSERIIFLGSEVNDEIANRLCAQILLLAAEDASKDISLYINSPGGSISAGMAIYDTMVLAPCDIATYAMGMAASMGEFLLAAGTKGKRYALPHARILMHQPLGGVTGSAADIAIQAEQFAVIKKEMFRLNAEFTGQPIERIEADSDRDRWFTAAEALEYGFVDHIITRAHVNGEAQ
UniProt P9WPC3, whole entry partner: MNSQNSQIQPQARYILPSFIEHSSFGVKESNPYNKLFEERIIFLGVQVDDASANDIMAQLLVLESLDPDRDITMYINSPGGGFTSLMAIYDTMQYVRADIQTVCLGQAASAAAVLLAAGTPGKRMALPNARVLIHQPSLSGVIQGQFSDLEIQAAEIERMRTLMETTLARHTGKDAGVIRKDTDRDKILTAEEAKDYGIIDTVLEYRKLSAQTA

Values are the deposited “Percent Effect”, in %.
How 0% and 100% were set is not recorded. Most values in the screen are low, and negative values occur.
Compounds were drawn at random from those tested, without regard to their results.

{"structure": "CCCNC(=O)C1CCN(Cc2csc(CC)n2)CC1", "A": -1.184, "B": -11.23}
{"structure": "CC1(C)[C@H]2CC=C(CN3CCCn4nc(CNS(C)(=O)=O)cc4C3)[C@@H]1C2", "A": 0.4374, "B": -10.38}
{"structure": "CC(C)NC(=O)C(C)S(=O)(=O)c1cc2c(cc1Cl)OCCO2", "stereo": "configuration not stated", "A": 4.288, "B": 2.971}
{"structure": "CCC1c2ccsc2CCN1C(=O)NCCc1ccccn1", "stereo": "configuration not stated", "A": 1.332, "B": -7.345}
{"structure": "CCCN1CCN(Cc2nccn2CC)C(C)C1", "stereo": "configuration not stated", "A": -4.155, "B": 13.4}
{"structure": "COc1ccccc1CNC(=O)N1CCCC(NS(C)(=O)=O)C1", "stereo": "configuration not stated", "A": -2.104, "B": 17.02}
{"structure": "CCOC(C)c1noc(CN2CCN(c3ccncc3)CC2)n1", "stereo": "configuration not stated", "A": 1.28, "B": 2.167}
{"structure": "Cc1ccc(-c2csc3c(=O)[nH]c(N4CCCC(C(=O)O)C4)nc23)cc1", "stereo": "configuration not stated", "A": 5.127, "B": 7.508}
{"structure": "CC(=O)c1ccn(CC(=O)Nc2nn(CC3CC3)c3ccccc23)n1", "A": 3.544, "B": -7.912}
{"structure": "O=S(=O)(Cc1ccc(F)cc1)NCc1nnc2n1CCC2", "A": 4.854, "B": 2.112}
{"structure": "NC(=O)c1c(SCCN2CCOCC2)sc2c(O)cc(=O)[nH]c12", "A": 6.137, "B": -7.631}
{"structure": "O=C1CN(c2ccc(CNC(=O)Nc3nccs3)cc2)CCN1", "A": 5.1, "B": -4.361}
{"structure": "O=C(CCc1nc(-c2ccccn2)no1)N1CCCC1c1ccsc1", "stereo": "configuration not stated", "A": 3.065, "B": -10.75}
{"structure": "Cc1ccccc1N1CC2(CCN(Cc3nccn3C)C2)CC1=O", "stereo": "configuration not stated", "A": 1.722, "B": -6.075}
{"structure": "CC1CS(=O)(=O)CCN1Cc1ccccc1N(C)C", "stereo": "configuration not stated", "A": 2.84, "B": -7.589}
{"structure": "COCCOCC(=O)NCc1ccc(N(C)C)nc1", "A": 2.316, "B": -10.18}
{"structure": "C[S+]([O-])c1nncn1CC(=O)c1cccc(Br)c1", "stereo": "configuration not stated", "A": 3.593, "B": 2.524}
{"structure": "CCCc1nnc2sc(C3CCN(CCOC)CC3)nn12", "A": 1.933, "B": -8.554}
{"structure": "Cc1cc(CC(C)Nc2nc(C3CCCC3)nc3c2cnn3C)[nH]n1", "stereo": "configuration not stated", "A": -5.267, "B": 10.3}
{"structure": "CCc1noc(CN2CCN(C(=O)OC(C)(C)C)C(C)C2)n1", "stereo": "configuration not stated", "A": 0.8498, "B": -0.783}
{"structure": "NC(=O)C1(c2cnccn2)CCCN1Cc1ccc(F)c(F)c1", "stereo": "configuration not stated", "A": 7.849, "B": 7.673}
{"structure": "Cc1cc(CN2CCN(CC3CC3)[C@@H]3CS(=O)(=O)C[C@@H]32)ccc1F", "A": -1.268, "B": -10.7}
{"structure": "Cc1nn(C)c(C)c1C1CCCN1C(=O)CCCn1cccn1", "stereo": "configuration not stated", "A": -1.771, "B": -7.205}
{"structure": "O=C(Nc1ccc(F)cc1)C1CCN(Cc2noc(C3CC3)n2)CC1", "A": 7.612, "B": 0.798}
{"structure": "CC(C)n1ccnc1CN1CCCN(C(=O)CN(C)C2CC2)CC1", "A": 0.5584, "B": 0.2119}
{"structure": "CCC(C)NC(=O)c1ccc(NC(=O)CCc2ccncc2)c(C)c1", "stereo": "configuration not stated", "A": 1.347, "B": 1.864}
{"structure": "CC(=O)N1CCc2[nH]c(=O)ccc2C1", "A": 1.797, "B": 0.06036}
{"structure": "CN(C)C1CC2(CCN(C(=O)C3(C#N)CC3)CC2)c2ccccc21", "stereo": "configuration not stated", "A": 5.993, "B": -7.782}
{"structure": "O=C(NCCSC1CCCC1)c1cnccn1", "A": 2.613, "B": 11.36}
{"structure": "Cc1nsc(NC(=O)NC2(CN3CCCCC3)CCCCC2)n1", "A": 9.598, "B": -8.36}
{"structure": "O=C(CCc1ccc(Cl)s1)N1CCCC(N2CCNC2=O)C1", "stereo": "configuration not stated", "A": 7.543, "B": -3.755}
{"structure": "CC(C)CN1CC(C(=O)NCCc2ccc(OC(F)F)cc2)CC1=O", "stereo": "configuration not stated", "A": 1.422, "B": 9.672}
{"structure": "CN(C)C(=O)c1ccc2c(c1)N(C)C(CC(=O)NCc1ncc[nH]1)CO2", "stereo": "configuration not stated", "A": 1.177, "B": -5.08}
{"structure": "COc1cccc(CN2CCN3C(=O)NC[C@H]3C2)n1", "A": 2.908, "B": -13.53}
{"structure": "CCCNC(=O)CNc1ccc2c(c1)N(C(=O)OC(C)(C)C)CCC2", "A": 5.096, "B": -8.125}
{"structure": "C[C@@H]1CN(Cc2ccccc2)CCN1C(=O)NCc1nccs1", "A": 7.423, "B": 0.3445}
{"structure": "COc1cccc2sc(OC3CN(C(=O)C4=COCCO4)C3)nc12", "A": 3.117, "B": -10.02}

Source: ChEMBL document CHEMBL3988442, “University of Dundee, Small-Polar-MMV Screening Library” (2021).